Drawing on PMC7414866, “The Rnf complex is a Na^+ coupled respiratory enzyme in a fermenting bacterium, Thermotoga maritima” (Communications Biology, 2020), this text covers binding for 6 molecules.

These are yes or no findings as the source states them, for the method shown. Some results given as binding are weak or reduced against the parent protein; the word gives no strength.

In assay [1] the target is T1, F1FO-ATP synthase subunit alpha of Thermotoga maritima (Thermotoga maritima (endogenous in T. maritima DSM3109)) (UniProt Q9X1U7).
T1 sequence: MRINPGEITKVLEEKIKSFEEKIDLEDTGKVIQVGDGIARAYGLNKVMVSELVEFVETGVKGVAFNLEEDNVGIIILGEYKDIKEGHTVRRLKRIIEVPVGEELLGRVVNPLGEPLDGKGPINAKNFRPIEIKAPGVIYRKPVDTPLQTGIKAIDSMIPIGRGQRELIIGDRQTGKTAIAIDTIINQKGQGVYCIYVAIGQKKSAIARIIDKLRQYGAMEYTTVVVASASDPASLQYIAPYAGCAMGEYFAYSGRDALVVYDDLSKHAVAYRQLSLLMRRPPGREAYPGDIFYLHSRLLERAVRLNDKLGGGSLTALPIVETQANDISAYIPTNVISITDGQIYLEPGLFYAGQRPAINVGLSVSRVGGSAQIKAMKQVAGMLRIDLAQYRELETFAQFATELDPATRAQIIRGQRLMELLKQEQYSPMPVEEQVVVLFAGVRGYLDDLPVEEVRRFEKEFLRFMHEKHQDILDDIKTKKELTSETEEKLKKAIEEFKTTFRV
The experiment in a line: native gel or EMSA; 20 ug of the preparation with Rnf and ATP synthase on native PAGE; bands found by in-gel NADH:MTT-oxidoreductase or ATPase activity, excised, separated by SDS-PAGE (silver stain); subunits identified by western blot or LC/MS/MS and MALDI-TOF. (A gel shift assay detects complexes by their altered migration in electrophoresis.)

For assay [2], the target named is T2, RnfC of Thermotoga maritima (Thermotoga maritima (endogenous in T. maritima DSM3109)) (UniProt Q9WY86).
T2 sequence: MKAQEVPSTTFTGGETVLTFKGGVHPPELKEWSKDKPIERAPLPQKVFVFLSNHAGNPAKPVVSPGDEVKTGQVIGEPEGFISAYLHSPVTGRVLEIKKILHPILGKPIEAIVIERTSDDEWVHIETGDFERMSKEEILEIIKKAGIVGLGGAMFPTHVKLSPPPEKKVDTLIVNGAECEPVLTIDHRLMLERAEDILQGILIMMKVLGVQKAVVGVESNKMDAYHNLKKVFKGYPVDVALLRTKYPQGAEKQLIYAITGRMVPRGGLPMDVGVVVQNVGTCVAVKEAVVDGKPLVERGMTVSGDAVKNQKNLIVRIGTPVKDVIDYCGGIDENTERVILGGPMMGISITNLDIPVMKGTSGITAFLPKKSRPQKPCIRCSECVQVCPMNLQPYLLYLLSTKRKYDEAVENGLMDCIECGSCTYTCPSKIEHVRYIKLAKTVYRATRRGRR
In words: co-purification (PEG precipitation, sucrose gradient, anion exchange, hydroxyapatite, gel filtration); DDM solubilisate, PEG6000 7% then 12%, sucrose gradient 20-50%, Q-sepharose, hydroxyapatite, Sephacryl S300; subunits confirmed by MALDI-TOF and SDS-PAGE; no ATPase activity in the preparation. Background: In gel filtration, larger molecules generally elute earlier.

For assay [3], the target named is T2, RnfC of Thermotoga maritima (Thermotoga maritima (endogenous in T. maritima DSM3109)). The experiment in a line: native gel or EMSA; 20 ug of the preparation with Rnf and ATP synthase on native PAGE; bands found by in-gel NADH:MTT-oxidoreductase or ATPase activity, excised, separated by SDS-PAGE (silver stain); subunits identified by western blot or LC/MS/MS and MALDI-TOF.

B1: F1FO-ATP synthase subunit delta of Thermotoga maritima (protein, UniProt Q9X1U8 1-183)
chain: MRFSAVAGRYARALLNVAIEKEKEEEYLRFLDLVCQIYESSRELFDNPILKPEKKISLIKEIMKSFGQEMDEFQERFLTLVFERKRQKLLRNIRDLFEYEKILSEQKVPANLSIAHSPEDEELSLLRKFVRKYALKDPVFDISIDESLIAGALVEFEGFRLDTTVQGRLKRIAREALKRGEMS
Regarding B1, the binding entry in assay [1] is given as “binds”.

B2: F1FO-ATP synthase subunit epsilon of Thermotoga maritima (protein, UniProt Q9X1U5 1-108)
chain: MKVKIVTPYGIVYDRESDFISFRTVEGSMGILPRRAPIVTQLSVCDVKIKSGDDEYHLKVAGGFLLCDGKDVIIITEEAGREEDISPDRFMEARERVERVRRFFQSSL
Take B2: the binding result in assay [1] is listed as “binds”.

B3: F1FO-ATP synthase subunit gamma of Thermotoga maritima (protein, UniProt Q9X1U6 1-273)
chain: MLQIKRKINATQSLMKITRAMEMVARAKVRKIESEYQKFKPFYDEVKRLWALVPAESLDPIFFEEGNRDLIVVITSDMGLCGSFNSEILREAERVISESRDPHLILVGLKAINHFKDGKVLKMYDRFYEIPDFRNGSTIVEDILNFLDGKPARVRVIFSRFKNVLIQRPEVHELLPIKKEEKKREDFEYEPRLEQIAPLIFHYYLSATLMELMFQTKIGEYYARQNAMKNATDNAQEVIRELTLAYNKARQASITQELIEIVTGAEALKEIEK
In the case of B3, the binding result in assay [1] is on record as “binds”.

B4: F1FO-ATP synthase subunit b of Thermotoga maritima (protein, UniProt Q9X1U9 1-164)
chain: MGFLEINWTSAAMLMLFVLMVYFLNKFLYTPFIEMAEKRRKKVEEDLKSAEQLKEEAEKMRSEAERFLSEARQRADEIVESARKEAEAIVEEAREKAKKEAQNIVESAKTQIEVEYKKALEQVQERAAELSVILATKLLQKVFQDERARREYLVKILKEEIEKS
Regarding B4, the binding result in assay [1] was “binds”.

B5: RnfD of Thermotoga maritima (protein, UniProt Q9WY87 1-318)
chain: MKLISAYAPHLREEDDVRKIMLDVLIALSPAVIGAAYFFGWYALFLCIAGAVIGELFDIFVMRYLRGVKDFVPDGSGAVTGLLLAMNVSTRLPFWAFLLGLVFALGIGKHVFGGLGQNIFNPALVGRAFLLISFPTYMTTWVVPGAGFWKSPADVVTAATPLALFKEHGVFTPYWDLFIGKVGGSLGETSALLLIIGFIYLLLRKRVKIFIPVSYIGTVLVFSSIAYLMNPRYGDPLFHLLSGGLMLGALFMATDMVTSPITAKGQVIFGIGCGVLTMAIRLFGAYPEGVSFSILFMNALVPLIDRYTRPRIFGEVKK
modifications: covalently bound flavin
Take B5: the binding entry in assay [2] and in assay [3] was “binds” throughout.

B6: F1FO-ATP synthase subunit c of Thermotoga maritima (protein, UniProt Q9X1V0 1-85)
chain: MENLGDLAQGLALLGKYLGAGLCMGIGAIGPGIGEGNIGAHAMDAMARQPEMVGTITTRMLLADAVAETTGIYSLLIAFMILLVV
As to B6, the binding result in assay [1] is “binds”.
